# Tests used:
# C6 cells = test: Rate of dead cells after 5-ALA PDT in erythrocyte solution, C6 cells, Example 3; type: cell-based, rat
# Experimental: (§1) C6 cells or human leukemia cell line TL-Oml cells were cultured in 2.5% FBS/F-12K medium (C6 cells) or 10% FBS/RPMI1640 (TL-Oml cells) supplemented with 5-ALA to a final concentration of 0.125 to 0.5 mM in a 5% CO2 incubator at 37° C. for 4 hours. After the culture, the cells were removed with a 0.25% trypsin-EDTA solution, and the collected cells were adjusted to 2×10^7 cells/mL with an erythrocyte solution (a solution in which erythrocytes and PBS were mixed at a ratio of 45:55). The cell suspension thus prepared was injected into a Tygon tube (inner diameter: 0.79 mm), wrapped around a light irradiator, and irradiated with light having a wavelength of 630 nm so that the irradiation energy density was 0.5 to 500 J/cm^2. After the irradiation, an ammonium chloride solution was added to the cell suspension to hemolyze the erythrocytes. Cells before the PDT treatment, after the PDT treatment, and after 24-hour culture were stained with the FITC Annexin V Apoptosis Detection Kit I and the rate of dead cells was analyzed with a flow cytometer.
# TL-Om1 cells = test: Rate of dead cells after 5-ALA PDT in erythrocyte solution, TL-Om1 cells, Example 3; type: cell-based, human; details: TL-0m1 cells
# Experimental: as §1
smiles,measurement,setting,value
"NCC(=O)CCC(=O)O [5-ALA, 5-aminolevulinic acid]",irradiation energy density at which living cells immediately after irradiation were 8% or more and 24 hours after irradiation 2% or more lower,C6 cells; 5-ALA 0.25 mM,2.5-300 J/cm^2
same,irradiation energy density at which living cells immediately after irradiation were 8% or more and 24 hours after irradiation 2% or more lower,C6 cells; 5-ALA 0.5 mM,2.5-350 J/cm^2
same,irradiation energy density at which living cells immediately after irradiation were 8% or more and 24 hours after irradiation 2% or more lower,TL-Om1 cells; 5-ALA 0.25 mM,10-500 J/cm^2
same,irradiation energy density at which living cells immediately after irradiation were 8% or more and 24 hours after irradiation 2% or more lower,TL-Om1 cells; 5-ALA 0.5 mM,2.5-500 J/cm^2
